LiHisRS: 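Histidine-tRNA ligase, Leishmania infantum (UniProt A4I591). Enzyme assay of histidyl-tRNA synthetase; the read-out is not stated. Compounds at 30 µM. Direction is inferred from retests: higher values go with stronger inhibition. The assay is labelled LdHisRS but filed under L. infantum. About 69,000 compounds were tested under these conditions; 0.6% (about 410) showed 50% or more at least once.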
T. brucei: 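Whole-parasite assay of Trypanosoma brucei over 72 hours; the read-out is not stated. Concentration: 30 µM. Higher reads as stronger inhibition (inferred: compounds with an IC50 in retests scored well above the rest). Values scatter widely below zero; nearly all retest evidence comes from the higher of the two concentrations used. Of about 64,000 compounds tested this way, about 940 (1.5%) reached 50% or more in at least one test.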
MtTrpRS: 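Enzyme assay of tryptophanyl-tRNA synthetase; the read-out is not stated. Target: Tryptophan-tRNA ligase, Mycobacterium tuberculosis (UniProt P9WFT3). Compounds at 10 µM. Direction is not recorded; retested compounds ran higher, which suggests that high means inhibition. About 65,000 compounds were tested under these conditions; 0.098% (about 64) showed 50% or more at least once.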

By UniProt entry, the sequences of proteins in these tests, tags left out. Residues count along the entry.
UniProt A4I591, 1-473: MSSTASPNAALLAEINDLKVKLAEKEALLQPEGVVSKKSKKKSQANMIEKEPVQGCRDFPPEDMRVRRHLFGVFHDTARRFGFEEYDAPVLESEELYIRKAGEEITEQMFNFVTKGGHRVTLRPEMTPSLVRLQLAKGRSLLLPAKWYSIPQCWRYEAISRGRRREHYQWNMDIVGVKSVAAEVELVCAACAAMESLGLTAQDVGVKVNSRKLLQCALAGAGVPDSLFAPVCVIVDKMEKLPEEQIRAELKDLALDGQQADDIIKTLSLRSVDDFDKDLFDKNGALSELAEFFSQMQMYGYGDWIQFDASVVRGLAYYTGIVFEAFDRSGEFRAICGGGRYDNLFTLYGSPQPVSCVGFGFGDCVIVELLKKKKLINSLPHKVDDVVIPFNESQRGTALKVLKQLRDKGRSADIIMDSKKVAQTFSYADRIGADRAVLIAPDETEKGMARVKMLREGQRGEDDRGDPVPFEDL
UniProt P9WFT3, whole entry: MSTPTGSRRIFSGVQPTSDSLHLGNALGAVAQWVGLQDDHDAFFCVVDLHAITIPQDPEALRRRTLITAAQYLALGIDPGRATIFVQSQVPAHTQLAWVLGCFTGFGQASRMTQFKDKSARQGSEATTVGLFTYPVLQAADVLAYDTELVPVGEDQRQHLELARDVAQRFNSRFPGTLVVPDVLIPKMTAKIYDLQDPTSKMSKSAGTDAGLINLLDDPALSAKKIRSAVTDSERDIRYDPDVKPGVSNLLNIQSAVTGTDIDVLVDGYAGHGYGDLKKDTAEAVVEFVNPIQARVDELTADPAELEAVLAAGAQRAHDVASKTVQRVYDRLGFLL

Results are given as percent effect. The controls that fix the scale are not given in the record; negative values are as filed. This is an unselected part of the compounds tested.

{"compound": "CC(C)C(C(=O)N1CCN(Cc2ccncc2)CC1)n1cncn1", "stereo": "stereo not drawn", "LiHisRS": 16.04, "T. brucei": 4.368, "MtTrpRS": 0.58}
{"compound": "CNS(=O)(=O)Cc1cccc(CNc2ccc(C#N)cn2)c1", "LiHisRS": 15.87, "T. brucei": 14.68, "MtTrpRS": 2.808}
{"compound": "Cc1nc(CN2CCCN(C(=O)c3cnccn3)CC2)cs1", "LiHisRS": 9.174, "MtTrpRS": -2.903}
{"compound": "COc1ccc(CN2CCNC(=O)CC2)cc1SC(F)(F)F", "LiHisRS": 13.68, "T. brucei": 2.773, "MtTrpRS": -6.067}
{"compound": "Cn1cc(CN2CC[C@H]3O[C@@H](C(=O)NC4CC4)CC[C@H]32)cn1", "LiHisRS": 4.11, "MtTrpRS": 0.8835}
{"compound": "CC(O)c1cn(Cc2ccc(F)cc2)nn1", "stereo": "stereo not drawn", "LiHisRS": -8.333, "MtTrpRS": -2.287}
{"compound": "CC(C)C[C@@H](C(N)=O)n1cc(-c2cncnc2)nn1", "LiHisRS": 31.15, "T. brucei": 26.04, "MtTrpRS": 3.382}
{"compound": "Cc1ccc(NC2CCN(C(=O)C(C)n3cncn3)CC2)nn1", "stereo": "stereo not drawn", "LiHisRS": 8.929, "T. brucei": -7.793, "MtTrpRS": 3.625}
{"compound": "O=C(O)C(F)(F)F.[H][C@@]12CCN(CC3CC3)[C@@]1([H])CCN2C(=O)c1cccc(Cl)c1", "T. brucei": -20.27}
{"compound": "CCc1cccc(NC(=O)CNc2ccccc2OCCC(=O)OC)c1", "LiHisRS": 16.48, "T. brucei": -1.141, "MtTrpRS": -0.9238}
{"compound": "Cc1nnc(CN2CCCC2c2cccc(Br)c2)o1", "stereo": "stereo not drawn", "LiHisRS": 19.84, "T. brucei": -9.657, "MtTrpRS": 2.465}
{"compound": "CN(Cc1cnn(C)c1)C(=O)c1cc(C(F)(F)F)n(C)n1", "LiHisRS": -7.5, "T. brucei": -23, "MtTrpRS": 1.492}
{"compound": "Cc1ccccc1CN(CCN(C)C)C(=O)c1ccc2nccn2c1", "LiHisRS": 8.602, "T. brucei": 12.39, "MtTrpRS": -4.326}
{"compound": "Cn1c(CCN2CCN(CCc3ccccc3)CC2)nc2ccccc21", "LiHisRS": 18.42, "T. brucei": -13.15, "MtTrpRS": -3.431}
{"compound": "Nc1nccc(C2CCCCN2Cc2cccc(F)c2)n1", "stereo": "stereo not drawn", "LiHisRS": -0.6897, "T. brucei": -9.649, "MtTrpRS": -5.333}
{"compound": "CC(C)(C)CN1CCOC[C@H]1c1nc(-c2cccc(F)c2)c[nH]1", "LiHisRS": 22.22, "T. brucei": 12.97, "MtTrpRS": -0.2259}
{"compound": "CNC(=O)C(C)(C)NC(=O)c1cc(COc2ccccc2OC)[nH]n1", "LiHisRS": 23.66, "T. brucei": 11.18, "MtTrpRS": -1.923}
{"compound": "CN1C(=O)C2(CCN(Cc3cccnc3)CC2)c2cccc(F)c21", "LiHisRS": 26, "MtTrpRS": -2.379}
{"compound": "CCNC(=O)N1CC[C@H]2CC(=O)N(CCN3CCNC3=O)CC[C@H]2C1", "LiHisRS": 16.67, "MtTrpRS": -0.5271}
{"compound": "CC[C@H]1CN2CC[C@H]1C[C@@H]2CNCc1cccc(C#N)c1", "LiHisRS": -36.11, "MtTrpRS": -3.539}
{"compound": "CC(C)N(C)Cc1cnc2n1CCN(C(=O)Cc1cccs1)C2C", "stereo": "stereo not drawn", "LiHisRS": 16, "MtTrpRS": -10.25}
{"compound": "CCc1noc(C(C)N2CCN(CCN3CCCC3=O)CC2)n1", "stereo": "stereo not drawn", "LiHisRS": 8.929, "T. brucei": -4.113, "MtTrpRS": -5.677}
{"compound": "Cc1ccccc1-c1cncc(C2CCN(Cc3cnn(C)c3)CC2)n1", "LiHisRS": 21.88, "T. brucei": 0.05253}
{"compound": "OCCOCCN1CCCC1c1cccc(Cl)c1", "stereo": "stereo not drawn", "LiHisRS": 12.61, "T. brucei": -54.71, "MtTrpRS": 1.65}
{"compound": "Cc1ccc(CN(CCCN2CCOCC2)Cc2cnn(C)c2)o1", "LiHisRS": 5.634, "MtTrpRS": -1.319}
{"compound": "CN(C)Cc1cn2c(n1)CN(C(=O)Cc1ccsc1)CC2", "LiHisRS": 13.83, "MtTrpRS": 4.535}

For reference, 3 entries once more:

For Cn1c(CCN2CCN(CCc3ccccc3)CC2)nc2ccccc21 the result was LiHisRS: 18.42%; T. brucei: -13.15%; MtTrpRS: -3.431%.
For O=C(O)C(F)(F)F.[H][C@@]12CCN(CC3CC3)[C@@]1([H])CCN2C(=O)c1cccc(Cl)c1 the result was T. brucei: -20.27%.
For Cc1nnc(CN2CCCC2c2cccc(Br)c2)o1 (stereo not drawn) the result was LiHisRS: 19.84%; T. brucei: -9.657%; MtTrpRS: 2.465%.

Measurements from “University of Dundee, Small-Polar-MMV Screening Library” (2021), ChEMBL document CHEMBL3988442.